PubChem BioAssay AID1259259, Sanger Institute, 2017
Shown is one part, drawn at random, of 794 reagents tested. In the full data, 9 (1.1%) are marked active. 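Calls rest on knock-down alone, not drug synergy; viability values seem capped at 1.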 Entries without a mark were called inactive. Further read-outs or replicates are left out here. Not stated in the record: the amount of reagent, the time to read-out.

- Screen: 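Kinome siRNA search for kinases essential alone or combined with trametinib, cetuximab or BYL719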 (primary screen)
- Cells: SW1463 human colorectal cancer cells
- Reagents: siRNA pool against human genes
- Treatment: DMSO vehicle, or one anchor drug: BYL719 at 1 µM, cetuximab at 5 µg/ml, or trametinib at 10 nM
- Measurement: 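Viability as fraction of control pool 2 (non-targeting), replicate mean; knock-down robust z-score without any drug; synergy score averaged for each anchor drug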
- Reading the numbers: robust z-score, knock-down alone: higher = more viable cells after knock-down; viability, knock-down alone: higher = more viable cells
- Units: viability, knock-down alone in fraction of control
- Active means: 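a robust z-score under -3 for knock-down with no drug marks the gene as essential, meaning viability loss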
- Calls: active = essential: viability loss from knock-down alone; inactive = no change from knock-down alone

For STK39 (serine/threonine kinase 39) the deposit lists robust z-score, knock-down alone 0.874; viability, knock-down alone 0.984.
Depletion of PIK3C2B came out at: robust z-score, knock-down alone 0.306; viability, knock-down alone 0.947.
Depletion of TK2 (thymidine kinase 2) gave: robust z-score, knock-down alone 1.13; viability, knock-down alone 1.
For EIF2AK2 (eukaryotic translation initiation factor 2 alpha kinase 2), the values are robust z-score, knock-down alone 0.101; viability, knock-down alone 0.934.
Against STRADA (STE20 related adaptor alpha) the deposit lists robust z-score, knock-down alone 1.13; viability, knock-down alone 1.
PRAG1 (PEAK1 related, kinase-activating pseudokinase 1) showed robust z-score, knock-down alone -1.25; viability, knock-down alone 0.847.

Laid out differently: entries from further up
STRADA (STE20 related adaptor alpha)
- robust z-score, knock-down alone: 1.13
- viability, knock-down alone: 1

PRAG1 (PEAK1 related, kinase-activating pseudokinase 1)
- robust z-score, knock-down alone: -1.25
- viability, knock-down alone: 0.847

More results:
Silencing of DLG2 (discs large MAGUK scaffold protein 2) came out at: robust z-score, knock-down alone 1.13; viability, knock-down alone 1.
For SGK1 (serum/glucocorticoid regulated kinase 1), the entry reads robust z-score, knock-down alone -0.377; viability, knock-down alone 0.903.
Knock-down of GRK4 (G protein-coupled receptor kinase 4) resulted in: robust z-score, knock-down alone 1.1; viability, knock-down alone 0.998.
Against GUK1 (guanylate kinase 1), the entry reads robust z-score, knock-down alone -0.368; viability, knock-down alone 0.904.
Silencing of CKB (creatine kinase B) gave: robust z-score, knock-down alone -0.386; viability, knock-down alone 0.903.
GNE gave robust z-score, knock-down alone -1.8; viability, knock-down alone 0.812.
